# Values of other authors, collected in patent publication US20080242732A1, “Liver selective drug therapy” (priority 1999, published 2008).
# Like-named read-outs stand apart in the source and are kept apart here. Some entries share one result that the patent states for a list of compounds.
# Conditions: cited from earlier work
# [1] = class of statins below 5 grams per liter
SMILES,aqueous solubility at room temperature (class of statins below 1 gram per liter),aqueous solubility at room temperature [1]
CC[C@H](C)C(=O)O[C@H]1C[C@@H](C)C=C2C=C[C@H](C)[C@H](CC[C@@H]3C[C@@H](O)CC(=O)O3)[C@H]21 [lovastatin],less than 1 gram per liter,less than 5 grams per liter
CC(C)n1c(/C=C/C(O)CC(O)CC(=O)O)c(-c2ccc(F)cc2)c2ccccc21 (stereo not drawn) [fluvastatin],,less than 5 grams per liter
